Source: the supplement of paper PMC10849652
The list shows a part of the results.

Protein sequences, listed by entry. Tags and fused reporters are not part of them. Lines headed by an entry give the natural chain unless they say otherwise; changes in a name come on top.
UniProt Q9H211: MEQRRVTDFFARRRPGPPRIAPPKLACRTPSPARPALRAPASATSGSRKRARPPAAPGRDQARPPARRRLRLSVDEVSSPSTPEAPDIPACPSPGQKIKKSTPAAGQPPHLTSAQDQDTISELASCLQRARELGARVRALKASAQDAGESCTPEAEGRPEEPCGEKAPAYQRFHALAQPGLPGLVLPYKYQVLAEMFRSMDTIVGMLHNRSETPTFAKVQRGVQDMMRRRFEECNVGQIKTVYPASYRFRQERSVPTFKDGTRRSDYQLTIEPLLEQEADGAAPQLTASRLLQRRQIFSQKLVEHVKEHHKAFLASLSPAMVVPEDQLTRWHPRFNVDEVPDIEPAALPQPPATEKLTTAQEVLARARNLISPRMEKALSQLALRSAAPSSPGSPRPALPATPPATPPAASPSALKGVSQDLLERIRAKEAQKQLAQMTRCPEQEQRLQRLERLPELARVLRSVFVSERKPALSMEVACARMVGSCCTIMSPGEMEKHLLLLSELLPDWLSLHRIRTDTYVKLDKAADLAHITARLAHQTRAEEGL
UniProt Q49AH0, whole entry, looked up: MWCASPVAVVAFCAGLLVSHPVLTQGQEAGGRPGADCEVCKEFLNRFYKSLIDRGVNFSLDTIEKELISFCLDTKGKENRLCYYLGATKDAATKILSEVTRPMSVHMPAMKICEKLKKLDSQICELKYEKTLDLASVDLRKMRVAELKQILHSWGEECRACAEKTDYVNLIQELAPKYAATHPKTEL
UniProt Q99741: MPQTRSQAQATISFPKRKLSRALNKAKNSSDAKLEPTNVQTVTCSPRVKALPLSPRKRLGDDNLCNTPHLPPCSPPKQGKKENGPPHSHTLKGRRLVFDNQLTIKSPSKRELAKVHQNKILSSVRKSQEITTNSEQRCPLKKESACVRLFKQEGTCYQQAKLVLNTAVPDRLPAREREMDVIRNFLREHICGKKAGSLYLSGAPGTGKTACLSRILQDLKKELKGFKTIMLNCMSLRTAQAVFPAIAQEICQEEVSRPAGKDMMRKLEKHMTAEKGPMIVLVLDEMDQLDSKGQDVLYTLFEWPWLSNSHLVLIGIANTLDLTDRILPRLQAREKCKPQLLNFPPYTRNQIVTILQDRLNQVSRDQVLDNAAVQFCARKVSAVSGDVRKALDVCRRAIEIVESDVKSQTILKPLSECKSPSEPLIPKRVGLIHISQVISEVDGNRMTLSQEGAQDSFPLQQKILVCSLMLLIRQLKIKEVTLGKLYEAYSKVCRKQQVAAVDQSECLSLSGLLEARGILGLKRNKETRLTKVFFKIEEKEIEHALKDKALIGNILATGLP
UniProt P00751, whole entry, looked up: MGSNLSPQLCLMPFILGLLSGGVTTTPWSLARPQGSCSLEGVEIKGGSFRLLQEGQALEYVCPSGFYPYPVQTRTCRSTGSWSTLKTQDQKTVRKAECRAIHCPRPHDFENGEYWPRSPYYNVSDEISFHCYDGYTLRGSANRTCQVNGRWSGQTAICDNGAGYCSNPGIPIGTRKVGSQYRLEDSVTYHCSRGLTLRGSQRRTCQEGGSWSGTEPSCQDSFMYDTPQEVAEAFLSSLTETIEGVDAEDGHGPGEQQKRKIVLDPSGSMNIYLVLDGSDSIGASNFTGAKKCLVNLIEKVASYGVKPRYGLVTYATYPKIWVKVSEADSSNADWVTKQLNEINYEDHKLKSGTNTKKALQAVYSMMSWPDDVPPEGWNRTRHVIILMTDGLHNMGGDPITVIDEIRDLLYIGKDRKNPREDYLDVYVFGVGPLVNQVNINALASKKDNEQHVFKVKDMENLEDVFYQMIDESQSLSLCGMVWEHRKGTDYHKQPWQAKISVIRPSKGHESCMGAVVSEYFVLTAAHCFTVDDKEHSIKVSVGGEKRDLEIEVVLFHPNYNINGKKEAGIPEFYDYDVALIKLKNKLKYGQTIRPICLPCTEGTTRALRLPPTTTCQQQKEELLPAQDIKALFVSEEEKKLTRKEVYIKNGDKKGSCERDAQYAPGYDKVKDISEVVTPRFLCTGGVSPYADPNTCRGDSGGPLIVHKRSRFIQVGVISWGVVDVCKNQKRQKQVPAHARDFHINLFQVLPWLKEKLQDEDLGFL
UniProt Q9UHN6: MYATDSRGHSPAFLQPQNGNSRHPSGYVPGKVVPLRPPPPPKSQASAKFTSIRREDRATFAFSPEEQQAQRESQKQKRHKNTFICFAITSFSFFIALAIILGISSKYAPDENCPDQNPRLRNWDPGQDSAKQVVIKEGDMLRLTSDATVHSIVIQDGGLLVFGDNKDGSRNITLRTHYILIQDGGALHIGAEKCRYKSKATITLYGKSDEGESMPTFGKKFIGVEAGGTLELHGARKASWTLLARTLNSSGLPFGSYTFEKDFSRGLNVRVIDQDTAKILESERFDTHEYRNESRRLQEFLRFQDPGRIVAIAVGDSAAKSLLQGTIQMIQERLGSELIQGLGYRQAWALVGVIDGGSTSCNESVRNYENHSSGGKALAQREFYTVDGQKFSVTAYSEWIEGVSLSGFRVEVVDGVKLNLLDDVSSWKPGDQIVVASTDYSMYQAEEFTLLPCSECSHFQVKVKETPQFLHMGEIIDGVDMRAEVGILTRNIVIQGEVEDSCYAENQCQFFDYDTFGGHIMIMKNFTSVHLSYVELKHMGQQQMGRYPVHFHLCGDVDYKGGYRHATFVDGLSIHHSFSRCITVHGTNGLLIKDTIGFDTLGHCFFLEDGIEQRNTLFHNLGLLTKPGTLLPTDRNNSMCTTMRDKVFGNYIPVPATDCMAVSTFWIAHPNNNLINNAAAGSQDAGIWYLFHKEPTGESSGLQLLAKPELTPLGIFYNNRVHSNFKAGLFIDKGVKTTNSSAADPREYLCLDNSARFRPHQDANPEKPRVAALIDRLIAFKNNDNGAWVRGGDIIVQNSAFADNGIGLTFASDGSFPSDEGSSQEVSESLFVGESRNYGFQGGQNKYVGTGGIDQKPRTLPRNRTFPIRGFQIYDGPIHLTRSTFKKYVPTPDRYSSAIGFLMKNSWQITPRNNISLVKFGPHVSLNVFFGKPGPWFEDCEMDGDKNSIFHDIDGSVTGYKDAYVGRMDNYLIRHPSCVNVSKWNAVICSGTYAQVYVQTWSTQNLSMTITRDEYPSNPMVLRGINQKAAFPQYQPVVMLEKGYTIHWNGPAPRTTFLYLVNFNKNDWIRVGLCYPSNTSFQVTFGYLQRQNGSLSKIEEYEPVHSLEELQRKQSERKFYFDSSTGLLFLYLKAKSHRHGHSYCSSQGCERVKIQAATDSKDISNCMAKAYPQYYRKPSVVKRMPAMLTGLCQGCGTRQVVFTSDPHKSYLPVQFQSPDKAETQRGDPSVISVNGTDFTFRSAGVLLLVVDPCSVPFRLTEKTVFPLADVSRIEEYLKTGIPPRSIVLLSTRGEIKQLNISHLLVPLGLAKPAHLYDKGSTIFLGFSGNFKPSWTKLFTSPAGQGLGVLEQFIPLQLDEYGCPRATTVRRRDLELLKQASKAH
UniProt P53567: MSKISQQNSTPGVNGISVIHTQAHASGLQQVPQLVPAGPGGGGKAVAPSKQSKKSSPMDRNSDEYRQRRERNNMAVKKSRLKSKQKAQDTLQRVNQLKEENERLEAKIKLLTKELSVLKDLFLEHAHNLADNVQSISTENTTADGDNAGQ
UniProt Q53HL2: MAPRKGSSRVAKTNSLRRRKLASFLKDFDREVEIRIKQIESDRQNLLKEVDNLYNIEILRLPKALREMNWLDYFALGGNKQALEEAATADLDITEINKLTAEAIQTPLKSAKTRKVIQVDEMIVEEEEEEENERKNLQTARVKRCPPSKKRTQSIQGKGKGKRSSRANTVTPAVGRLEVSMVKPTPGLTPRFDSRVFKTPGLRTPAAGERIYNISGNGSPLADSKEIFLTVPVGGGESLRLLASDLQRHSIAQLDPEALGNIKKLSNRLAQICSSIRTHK
UniProt O14646: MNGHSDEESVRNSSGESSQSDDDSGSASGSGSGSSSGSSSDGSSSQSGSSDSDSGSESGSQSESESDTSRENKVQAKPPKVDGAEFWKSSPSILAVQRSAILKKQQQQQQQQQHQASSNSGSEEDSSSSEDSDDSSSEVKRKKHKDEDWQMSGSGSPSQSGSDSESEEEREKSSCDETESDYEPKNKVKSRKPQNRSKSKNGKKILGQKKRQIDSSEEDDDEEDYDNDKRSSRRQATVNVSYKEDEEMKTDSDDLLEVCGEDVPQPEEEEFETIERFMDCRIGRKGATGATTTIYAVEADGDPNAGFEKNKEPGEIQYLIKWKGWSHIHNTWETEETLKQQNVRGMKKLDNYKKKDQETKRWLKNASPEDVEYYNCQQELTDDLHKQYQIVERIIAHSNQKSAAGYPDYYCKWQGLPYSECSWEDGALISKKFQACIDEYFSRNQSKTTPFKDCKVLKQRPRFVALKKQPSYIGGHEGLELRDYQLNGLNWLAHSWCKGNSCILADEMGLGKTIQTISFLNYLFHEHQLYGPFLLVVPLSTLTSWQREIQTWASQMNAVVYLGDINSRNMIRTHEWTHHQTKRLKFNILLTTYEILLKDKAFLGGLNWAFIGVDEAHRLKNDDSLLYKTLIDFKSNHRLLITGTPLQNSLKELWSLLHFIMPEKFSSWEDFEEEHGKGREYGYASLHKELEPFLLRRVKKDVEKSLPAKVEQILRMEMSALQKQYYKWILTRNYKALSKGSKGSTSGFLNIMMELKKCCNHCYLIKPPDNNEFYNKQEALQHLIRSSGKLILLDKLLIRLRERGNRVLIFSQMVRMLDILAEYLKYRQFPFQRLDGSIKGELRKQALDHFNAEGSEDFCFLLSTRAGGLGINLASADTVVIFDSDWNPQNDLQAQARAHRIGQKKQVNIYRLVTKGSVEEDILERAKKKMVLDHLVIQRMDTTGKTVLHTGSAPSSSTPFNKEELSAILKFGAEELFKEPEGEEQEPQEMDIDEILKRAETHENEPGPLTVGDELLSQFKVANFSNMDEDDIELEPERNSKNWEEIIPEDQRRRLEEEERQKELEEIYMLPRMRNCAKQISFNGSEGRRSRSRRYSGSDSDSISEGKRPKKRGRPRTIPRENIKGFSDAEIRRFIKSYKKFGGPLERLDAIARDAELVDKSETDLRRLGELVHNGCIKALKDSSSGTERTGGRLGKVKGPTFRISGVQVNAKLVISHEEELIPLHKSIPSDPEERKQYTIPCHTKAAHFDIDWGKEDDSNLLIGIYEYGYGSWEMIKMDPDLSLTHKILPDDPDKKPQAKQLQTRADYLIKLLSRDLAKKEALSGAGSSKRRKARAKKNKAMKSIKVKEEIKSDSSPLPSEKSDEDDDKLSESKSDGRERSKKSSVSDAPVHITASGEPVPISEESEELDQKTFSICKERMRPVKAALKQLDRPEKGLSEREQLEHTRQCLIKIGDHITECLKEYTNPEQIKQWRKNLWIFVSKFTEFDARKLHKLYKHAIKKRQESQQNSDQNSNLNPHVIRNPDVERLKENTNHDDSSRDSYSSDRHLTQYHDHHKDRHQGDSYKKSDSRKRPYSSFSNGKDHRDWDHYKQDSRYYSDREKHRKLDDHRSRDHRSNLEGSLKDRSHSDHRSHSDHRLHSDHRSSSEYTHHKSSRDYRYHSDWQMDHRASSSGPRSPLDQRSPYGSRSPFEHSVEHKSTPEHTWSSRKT

Assays:
Test in all cases: log2 fold change, soluble protein after heating vs DMSO (PISA); higher = thermal stabilisation; K562 cells, 10 uM, 30 min; active = over 0.2 and 3.5 SD of the protein, either way, in both replicates (recomputed)
crizotinib = compound: C[C@@H](Oc1cc(-c2cnn(C3CCNCC3)c2)cnc1N)c1c(Cl)ccc(F)c1Cl [crizotinib]
In short: (§1)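 Aliquots of K562 cells (2×10^6 cells/mL) treated with 10 μM compound for 30 min were heated for 3 min over 48°C-58°C. After pooling and extraction in PBS with 0.5% NP-40 at 4°C, soluble protein from a 21,000xg, 90 min spin was quantified by TMTpro 16plex LC-MS/MS with channel sums equalised. Thermal stability is expressed against control samples, from duplicates, as a log2 fold change.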

[1] = compound: C[C@H](C1=CC=C(C=C1)C(=O)NC2=C3C=CNC3=NC=C2)N
In short: as §1

doramapimod = compound: Cc1ccc(-n2nc(C(C)(C)C)cc2NC(=O)Nc2ccc(OCCN3CCOCC3)c3ccccc23)cc1 [doramapimod]
In short: as §1

bafetinib = compound: Cc1ccc(NC(=O)c2ccc(CN3CC[C@H](N(C)C)C3)c(C(F)(F)F)c2)cc1Nc1nccc(-c2cncnc2)n1 [bafetinib]
In short: as §1

nilotinib = compound: Cc1cn(-c2cc(NC(=O)c3ccc(C)c(Nc4nccc(-c5cccnc5)n4)c3)cc(C(F)(F)F)c2)cn1 [nilotinib]
In short: as §1

[2] = compound: Cc1nc(Nc2n[nH]c3c2CN(C(=O)N[C@H](CN(C)C)c2ccccc2)C3(C)C)c2sccc2n1
In short: as §1

[3] = compound: Cc1ncc(-c2ccnc(Nc3ccc(S(C)(=O)=O)cc3)n2)n1C(C)C
In short: as §1

[4] = compound: Cn1cc(-c2ccc3c(c2)CCN3C(=O)Cc2cccc(C(F)(F)F)c2)c2c(N)ncnc21
In short: as §1

tipifarnib = compound: Cn1cncc1[C@@](N)(c1ccc(Cl)cc1)c1ccc2c(c1)c(-c1cccc(Cl)c1)cc(=O)n2C [tipifarnib]
In short: as §1

[5] = compound: C[C@@H]1COCCN1C2=NC(=NC(=C2)C3(CC3)S(=O)(=O)C)C4=C5C=CNC5=CC=C4
In short: as §1

[6] = compound: CS(=O)(=O)c1ccc(-c2cnc(N)c(C(=O)Nc3ccccc3)n2)cc1
In short: as §1

gandotinib = compound: Cc1cc(Nc2cc(CN3CCOCC3)c3nc(C)c(Cc4ccc(Cl)cc4F)n3n2)n[nH]1 [gandotinib]
In short: as §1

[7] = compound: Cc1cccc(CC(=O)N2CCc3c2ccc(-c2cn(C)c4ncnc(N)c24)c3F)n1
In short: as §1

mubritinib = compound: FC(F)(F)c1ccc(/C=C/c2nc(COc3ccc(CCCCn4ccnn4)cc3)co2)cc1 [mubritinib]
In short: as §1

duvelisib = compound: C[C@H](Nc1ncnc2nc[nH]c12)c1cc2cccc(Cl)c2c(=O)n1-c1ccccc1 [duvelisib]
In short: as §1

[8] = compound: Cc1cc(SCc2sc(-c3ccc(C(F)(F)F)cc3)nc2C)ccc1OCC(=O)O
In short: as §1

dasatinib = compound: Cc1nc(Nc2ncc(C(=O)Nc3c(C)cccc3Cl)s2)cc(N2CCN(CCO)CC2)n1 [dasatinib]
In short: as §1

tozasertib = compound: Cc1cc(Nc2cc(N3CCN(C)CC3)nc(Sc3ccc(NC(=O)C4CC4)cc3)n2)n[nH]1 [tozasertib]
In short: as §1

ispinesib = compound: Cc1ccc(C(=O)N(CCCN)[C@@H](c2nc3cc(Cl)ccc3c(=O)n2Cc2ccccc2)C(C)C)cc1 [ispinesib]
In short: as §1

[9] = compound: Cn1cc(-c2ccc3nnc(C(F)(F)c4ccc5ncccc5c4)n3n2)cn1
In short: as §1

Measured: log2 fold change

CENPK (UniProt Q9BS16)
inactive: crizotinib -0.102 | [1] -0.202 | doramapimod 0.053 | bafetinib 0.247 | nilotinib 0.07 | [2] -0.207 | [3] -0.047 | [4] 0.014 | tipifarnib 0.087

CDT1 (UniProt Q9H211)
inactive: [5] -0.076

CEP57 (UniProt Q86XR8)
inactive: [6] -0.009 | [1] 0.342 | gandotinib -0.112 | [7] -0.042 | nilotinib -0.051 | [2] -0.354 | [3] -0.365 | [4] -0.095 | mubritinib -0.067

CDNF (UniProt Q49AH0)
inactive: crizotinib 0.099 | duvelisib 0.149 | [8] -0.241 | doramapimod 0.069 | dasatinib -0.048

CDK5RAP2 (UniProt Q96SN8)
inactive: crizotinib 0.053 | [5] 0.024 | tozasertib 0.061 | doramapimod 0.099 | bafetinib 0.095

CEP83 (UniProt Q9Y592)
inactive: crizotinib 0.014 | doramapimod -0.003 | ispinesib -0.073 | bafetinib -0.091 | [9] -0.002

CENPM (UniProt Q9NSP4)
inactive: duvelisib 0.214 | [8] 0.116 | dasatinib 0.003

CHD1L (UniProt Q86WJ1)
inactive: [6] -0.027 | gandotinib 0.205 | [7] -0.1

CDH5 (UniProt P33151)
inactive: [6] 0.001 | [5] 0.078 | mubritinib -0.014

CHFR (UniProt Q96EP1)
inactive: crizotinib 0.056 | [5] 0.22 | tozasertib -0.004 | doramapimod -0.119 | tipifarnib -0.094 | mubritinib 0.059

CFAP58 (UniProt Q5T655)
inactive: gandotinib -0.011 | ispinesib -0.165 | [7] 0.009 | [9] -0.046 | tipifarnib -0.108 | mubritinib 0.127

CDH13 isoform 4 (UniProt P55290)
inactive: duvelisib -0.038 | [8] 0.163 | dasatinib 0.115

CDC6 (UniProt Q99741)
inactive: [5] -0.225 | duvelisib 0.014 | [8] 0.13 | dasatinib 0.166

CELSR2 (UniProt Q9HCU4)
inactive: [1] 0.023 | [4] -0.096

CFB (UniProt P00751)
inactive: [6] 0.066 | [1] 0.27 | duvelisib -0.11 | gandotinib -0.018 | [8] -0.079 | ispinesib -0.01 | bafetinib -0.125 | [7] -0.293 | nilotinib -0.062 | [2] 0.075 | dasatinib 0.072 | [3] 0.188 | [4] 0.504 | [9] -0.016 | mubritinib -0.264

CEP170 isoform 3 (UniProt Q5SW79)
inactive: crizotinib -0.537 | doramapimod 0.202 | bafetinib -0.191

CENPC (UniProt Q03188)
inactive: crizotinib -0.031 | [5] -0.115 | [1] -0.008 | duvelisib -0.12 | [8] -0.091 | doramapimod 0.178 | nilotinib -0.157 | [2] 0.045 | dasatinib 0.058 | [3] 0.094 | [4] -0.338 | tipifarnib -0.116

CEMIP2 (UniProt Q9UHN6)
inactive: crizotinib 0.075 | [5] 0.023 | [1] 0.03 | gandotinib -0.129 | [8] -0.136 | doramapimod -0.144 | ispinesib -0.148 | bafetinib -0.018 | [7] 0.002 | nilotinib 0.069 | [2] 0.083 | dasatinib -0.044 | [3] 0.031 | [4] 0.03 | [9] 0.179 | tipifarnib 0.033 | mubritinib -0.024

CHD8 (UniProt Q9HCK8)
inactive: [5] 0.147 | ispinesib -0.047 | bafetinib -0.155 | [9] 0.086

CDH2 (UniProt P19022)
inactive: crizotinib 0.146 | gandotinib 0.047 | doramapimod 0.001 | [7] -0.595 | tipifarnib 0.193

CEBPG (UniProt P53567)
inactive: [1] 0.116 | gandotinib 0.11 | ispinesib 0.013 | [7] -0.136 | nilotinib 0.186 | [2] 0.017 | [3] -0.021 | [4] -0.027 | [9] -0.019 | tipifarnib 0.133

CDK2AP2 (UniProt O75956)
inactive: crizotinib 0.213 | [5] 0.173 | [1] -0.015 | doramapimod -0.014 | ispinesib -0.011 | bafetinib 0 | nilotinib 0.04 | [2] 0.028 | [3] -0.063 | [4] -0.022 | [9] -0.039 | mubritinib 0.028

CDS1 (UniProt Q92903)
inactive: [5] -0.062 | [1] -0.027 | duvelisib -0.105 | [8] 0.055 | bafetinib -0.008 | dasatinib 0.019 | [4] 0.14 | mubritinib 0.107

CHCHD10 (UniProt Q8WYQ3)
inactive: crizotinib 0.133 | [5] 0.021 | doramapimod 0.061 | ispinesib 0.015 | bafetinib -0.07 | nilotinib -0.015 | [2] -0.005 | [3] -0.005 | [9] 0.157 | tipifarnib -0.027 | mubritinib 0.023

CDCA8 (UniProt Q53HL2)
inactive: [6] 0.146 | ispinesib -0.093 | [9] -0.043

CENPP (UniProt Q6IPU0)
inactive: crizotinib -0.147 | [5] -0.203 | [1] 0.028 | duvelisib 0.036 | gandotinib -0.13 | tozasertib -0.025 | [8] -0.054 | doramapimod 0.012 | ispinesib -0.027 | bafetinib -0.028 | [7] 0.075 | nilotinib -0.025 | [2] -0.02 | dasatinib -0.034 | [3] 0.025 | [4] 0.054 | [9] -0.121 | tipifarnib -0.11 | mubritinib -0.04

CFAP47 (UniProt Q6ZTR5)
inactive: [5] 0.099 | [8] -0.302 | bafetinib 0.034 | dasatinib -0.117 | tipifarnib 0.047

CEBPZ (UniProt Q03701)
inactive: [6] -0.215 | [1] 0.261 | duvelisib 0.045 | gandotinib -0.034 | tozasertib 0.014 | [8] 0.016 | [7] -0.079 | dasatinib 0.009 | [4] -0.476 | mubritinib -0.154

CHMP2A (UniProt M0R1T5)
inactive: tozasertib -0.073 | tipifarnib -0.084 | mubritinib 0.192

CER1 (UniProt O95813)
inactive: gandotinib 0.816 | [7] -0.389

CEFIP (UniProt Q711Q0)
inactive: [5] -0.05 | bafetinib 0.156 | tipifarnib 0.038 | mubritinib 0

CFL1 (UniProt E9PP50)
inactive: gandotinib -0.085 | [7] 0.592 | nilotinib 1.14 | [2] 0.076 | [3] 0.146

CEBPB (UniProt P17676)
inactive: crizotinib 0.009 | [5] -0.157 | [1] 0.069 | duvelisib -0.089 | gandotinib -0.204 | tozasertib 0.128 | [8] -0.07 | doramapimod 0.005 | ispinesib -0.314 | bafetinib -0.017 | [7] -0.093 | nilotinib 0.013 | [2] 0.047 | dasatinib 0.113 | [3] -0.013 | [4] -0.004 | [9] -0.023 | tipifarnib 0.032 | mubritinib -0.047

CHD1 (UniProt O14646)
inactive: [5] 0.008 | gandotinib 0.039 | [7] -0.075

CEND1 (UniProt Q8N111)
inactive: [6] -0.05 | tozasertib -0.109 | ispinesib -0.078 | [9] -0.01 | tipifarnib 0.088

CDR2L (UniProt Q86X02)
inactive: [1] -0.151 | duvelisib 0.045 | gandotinib -0.43 | tozasertib -0.079 | [8] 0.064 | ispinesib -0.257 | [7] 0.038 | dasatinib -0.136 | [4] 0.033 | [9] -0.304

Quoted from the entries so far (nine entries):
CDCA8 (UniProt Q53HL2)
inactive: [6] 0.146 | ispinesib -0.093 | [9] -0.043

CENPP (UniProt Q6IPU0)
inactive: crizotinib -0.147 | [5] -0.203 | [1] 0.028 | duvelisib 0.036 | gandotinib -0.13 | tozasertib -0.025 | [8] -0.054 | doramapimod 0.012 | ispinesib -0.027 | bafetinib -0.028 | [7] 0.075 | nilotinib -0.025 | [2] -0.02 | dasatinib -0.034 | [3] 0.025 | [4] 0.054 | [9] -0.121 | tipifarnib -0.11 | mubritinib -0.04

CFAP47 (UniProt Q6ZTR5)
inactive: [5] 0.099 | [8] -0.302 | bafetinib 0.034 | dasatinib -0.117 | tipifarnib 0.047

CEBPZ (UniProt Q03701)
inactive: [6] -0.215 | [1] 0.261 | duvelisib 0.045 | gandotinib -0.034 | tozasertib 0.014 | [8] 0.016 | [7] -0.079 | dasatinib 0.009 | [4] -0.476 | mubritinib -0.154

CHMP2A (UniProt M0R1T5)
inactive: tozasertib -0.073 | tipifarnib -0.084 | mubritinib 0.192

CER1 (UniProt O95813)
inactive: gandotinib 0.816 | [7] -0.389

CEFIP (UniProt Q711Q0)
inactive: [5] -0.05 | bafetinib 0.156 | tipifarnib 0.038 | mubritinib 0

CFL1 (UniProt E9PP50)
inactive: gandotinib -0.085 | [7] 0.592 | nilotinib 1.14 | [2] 0.076 | [3] 0.146

CEBPB (UniProt P17676)
inactive: crizotinib 0.009 | [5] -0.157 | [1] 0.069 | duvelisib -0.089 | gandotinib -0.204 | tozasertib 0.128 | [8] -0.07 | doramapimod 0.005 | ispinesib -0.314 | bafetinib -0.017 | [7] -0.093 | nilotinib 0.013 | [2] 0.047 | dasatinib 0.113 | [3] -0.013 | [4] -0.004 | [9] -0.023 | tipifarnib 0.032 | mubritinib -0.047

(listing goes on)

CDC42EP3 (UniProt Q9UKI2)
inactive: [5] -0.053 | mubritinib 0.204

CEBPZOS (UniProt A8MTT3)
inactive: gandotinib -0.189 | [8] -0.013 | doramapimod 0.066 | ispinesib 0.016 | bafetinib 0.066 | [7] 0.014 | nilotinib 0.039 | [2] 0.021 | dasatinib 0.009 | [3] -0.027 | [9] 0.033 | tipifarnib -0.044 | mubritinib 0.121
active: crizotinib 0.26
